Our source for the IC50 values is US8877754B2, “Compounds, pharmaceutical compositions and uses thereof” (Boehringer Ingelheim International GmbH, priority 2010, dated 2014).

Chains of the proteins cited; added tags and fusions are not shown. Residues count along the entry.
UniProt O00763, 129-2458 limits assumed: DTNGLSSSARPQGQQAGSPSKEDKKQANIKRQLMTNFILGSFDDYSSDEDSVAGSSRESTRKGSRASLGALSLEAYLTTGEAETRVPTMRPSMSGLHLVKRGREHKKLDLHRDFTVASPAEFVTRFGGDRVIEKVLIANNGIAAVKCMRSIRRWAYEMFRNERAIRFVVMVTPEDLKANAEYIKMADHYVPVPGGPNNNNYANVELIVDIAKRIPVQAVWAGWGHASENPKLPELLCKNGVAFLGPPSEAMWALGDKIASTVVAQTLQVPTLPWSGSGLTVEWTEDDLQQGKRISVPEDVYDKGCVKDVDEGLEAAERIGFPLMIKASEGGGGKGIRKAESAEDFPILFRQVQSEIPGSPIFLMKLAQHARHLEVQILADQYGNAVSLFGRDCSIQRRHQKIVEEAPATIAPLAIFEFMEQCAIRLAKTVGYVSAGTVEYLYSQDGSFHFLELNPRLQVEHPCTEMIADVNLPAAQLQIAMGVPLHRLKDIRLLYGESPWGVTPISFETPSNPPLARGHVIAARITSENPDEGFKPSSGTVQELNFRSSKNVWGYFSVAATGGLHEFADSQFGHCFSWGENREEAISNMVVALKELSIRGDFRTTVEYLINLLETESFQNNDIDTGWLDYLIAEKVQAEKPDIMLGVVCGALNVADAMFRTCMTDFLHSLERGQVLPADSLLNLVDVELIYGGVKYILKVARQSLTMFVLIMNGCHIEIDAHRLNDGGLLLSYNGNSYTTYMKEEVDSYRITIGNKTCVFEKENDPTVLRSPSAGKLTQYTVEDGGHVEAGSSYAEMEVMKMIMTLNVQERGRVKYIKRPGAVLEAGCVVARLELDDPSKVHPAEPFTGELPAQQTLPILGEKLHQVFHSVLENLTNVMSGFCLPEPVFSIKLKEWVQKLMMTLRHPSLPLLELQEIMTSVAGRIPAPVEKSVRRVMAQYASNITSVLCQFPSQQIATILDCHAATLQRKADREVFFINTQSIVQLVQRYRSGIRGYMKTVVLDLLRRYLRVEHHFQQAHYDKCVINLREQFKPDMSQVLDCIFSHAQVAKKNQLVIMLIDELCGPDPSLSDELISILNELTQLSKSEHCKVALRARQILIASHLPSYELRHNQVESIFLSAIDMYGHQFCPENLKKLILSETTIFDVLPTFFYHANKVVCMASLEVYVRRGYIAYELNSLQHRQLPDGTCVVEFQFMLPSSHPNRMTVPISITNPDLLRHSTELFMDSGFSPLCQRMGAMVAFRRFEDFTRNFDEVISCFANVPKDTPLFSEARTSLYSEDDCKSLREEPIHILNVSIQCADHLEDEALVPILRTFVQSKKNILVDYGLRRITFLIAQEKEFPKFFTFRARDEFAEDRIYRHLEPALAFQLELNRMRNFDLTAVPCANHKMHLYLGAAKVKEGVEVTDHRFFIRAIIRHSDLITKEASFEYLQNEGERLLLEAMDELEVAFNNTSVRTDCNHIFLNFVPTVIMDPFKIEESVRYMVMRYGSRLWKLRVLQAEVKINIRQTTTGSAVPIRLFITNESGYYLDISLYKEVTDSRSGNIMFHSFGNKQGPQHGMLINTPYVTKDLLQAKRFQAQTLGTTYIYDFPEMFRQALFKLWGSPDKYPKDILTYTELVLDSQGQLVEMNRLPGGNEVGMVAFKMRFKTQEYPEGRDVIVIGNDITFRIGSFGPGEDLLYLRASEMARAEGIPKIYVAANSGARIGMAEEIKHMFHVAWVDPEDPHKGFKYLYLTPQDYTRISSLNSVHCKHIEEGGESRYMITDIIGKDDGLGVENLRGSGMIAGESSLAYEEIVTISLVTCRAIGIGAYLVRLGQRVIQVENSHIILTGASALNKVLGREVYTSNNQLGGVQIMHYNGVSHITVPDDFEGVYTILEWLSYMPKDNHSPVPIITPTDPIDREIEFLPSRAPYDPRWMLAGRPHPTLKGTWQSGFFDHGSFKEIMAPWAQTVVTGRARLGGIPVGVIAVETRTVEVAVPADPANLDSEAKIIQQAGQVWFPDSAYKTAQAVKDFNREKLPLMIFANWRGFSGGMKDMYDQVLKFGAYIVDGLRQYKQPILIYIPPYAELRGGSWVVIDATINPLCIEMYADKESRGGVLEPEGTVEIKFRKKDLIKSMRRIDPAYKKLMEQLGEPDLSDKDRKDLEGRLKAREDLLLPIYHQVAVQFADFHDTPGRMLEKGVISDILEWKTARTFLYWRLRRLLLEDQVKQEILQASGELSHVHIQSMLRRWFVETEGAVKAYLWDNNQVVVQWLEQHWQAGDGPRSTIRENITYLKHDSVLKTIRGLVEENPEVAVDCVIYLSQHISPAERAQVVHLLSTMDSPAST

This assay has as its target human ACC2 (Homo sapiens, UniProt O00763). Briefly: ACC2 assay, spectrophotometric 384 well assay (NADH-linked, coupled lactate dehydrogenase/pyruvate kinase). The following applies: hACC2 construct lacking the 128 N-terminal amino acids; 25° C., 340 nm, 15 minutes. How it is done:
Spectrophotometric 384 Well Assay
Malonyl CoA formation by acetyl CoA carboxylases is stoichometrically linked to the consumption of ATP. ACC2 activity is measured in a NADH-linked kinetic method measuring ADP generated during the ACC reaction using a coupled lactate dehydrogenase/pyruvate kinase reaction.
For biological testing, a human ACC2 construct which lacks the 128 amino acids at the N-terminus for increased solubility (nt 385-6966 in Genbank entry AJ575592) is cloned. The protein is then expressed in insect cells using a baculoviral expression system. Protein purification is performed by anion exchange.
All compounds are dissolved in dimethyl sulfoxide (DMSO) to a concentration of 10 mM.
Assay reactions are then carried out in 384-well plates, with hACC2 in an appropriate dilution and at final assay concentrations (f.c.) of 100 mM Tris (pH 7.5), 10 mM trisodium citrate, 25 mM KHCO3, 10 mM MgCl2, 0.5 mg/mL BSA, 3.75 mM reduced L-glutathione, 15 U/mL lactate dehydrogenase, 0.5 mM phosphoenolpyruvate, 15 U/mL pyruvate kinase, compounds at different concentrations at final DMSO concentrations of 1%.
The enzymatic reaction is then started by addition of a mixture of NADH, acetyl Coenzyme A (both 200 μM f.c.) and ATP (500 uM f.c.). The decrease of the optical density (slope S) is then determined at 25° C. at a wavelength of 340 nm over 15 minutes in a spectrophotometric reader.
Each assay microtiter plate contains wells with vehicle instead of compound as controls for the non-inhibited enzyme (100% CTL; ‘HIGH’) and wells without acetyl-CoA as controls for non-specific NADH degradation (0% CTL; ‘LOW’). The slope S is used for calculation of % CTL=(S(compound)−S(‘LOW’))/(S(‘HIGH’)—S(‘LOW’))*100. Compounds will give values between 100% CTL (no inhibition) and 0% CTL (complete inhibition).
For IC50 value determination, the sample slope in the presence of the test compound after subtraction of the low controls (S(compound)−S(‘LOW’)) are used.
An IC50 value is derived from the compound slopes at different dosages after subtraction of the low controls (S(compound)−S(‘LOW’)) by non-linear regression curve fitting (equation y=(A+((B−A)/(1+((C/x)^D))))).

The structures given here were assigned with low confidence; some may be wrong.

Regarding `CCNC(=O)C(C)c1ccc(C#Cc2cnc(NCC)nc2)cc1` (stereo not shown), the IC50 – broadly, the concentration that gives 50% inhibition – came out at 0.28 µM.
The same measure for `CCNC(=O)C(C)c1ccc(C#Cc2cnc(NCc3cccnc3)nc2)cc1` (stereo not shown): 3 µM.
With `CCOc1ccc(C#Cc2ccc(C(C)C(=O)NCC3CC3)cc2)cc1` (stereo not shown) the figure was 28.7 µM; with `CCNC(=O)C(C)c1ccc(C#Cc2cnc(N3CCCC3)nc2)cc1` (stereo not shown), 3.7 µM.
